These are yes or no findings as the source states them, for the method shown. Some results given as binding are weak or reduced against the parent protein; the word gives no strength.
Target: cynomolgus monkey PRL (cynomolgus monkey)
Assay: bio-layer interferometry

- binding: binds
B1: Antibody 37 (antibody, human IgG4 S228P, kappa, V domains shown)
VH: QVQLVQSGAEVKKPGASVKVSCKASGYTFSNFWIEWVRQAPGQRLEWMGEIFPGTGSTYYTEKFKVRVTITRDTSASTAYMELSSLRSEDTAVYYCARRGYSDSWFAHWGQGTLVTVSS
VL: DIQMTQSPSSLSASVGDRVTITCRASESVDMYGKSFMHWYQQKPGKAPKLLIYRASTLESGVPSRFSGSGSGTDFTLTISSLQPEDFATYYCQQNVEAPLTFGGGTKVEIKR
notes: Humanized IgG4(S228P), IGHV1-3 heavy and IGKV1-39 light frameworks; also called humanized anti-hPRL antibody

From patent EP4428150A1 (Peptide Logic LLC, dated 2024)
